42 sequences from publication PMC7819943, “Rice protein-binding microarrays: a tool to detect cis-acting elements near promoter regions in rice” can be followed below.

Sequences of proteins named here, by UniProt entry; tags and fusion partners are left off.
UniProt Q0JBA9, entry or part of it: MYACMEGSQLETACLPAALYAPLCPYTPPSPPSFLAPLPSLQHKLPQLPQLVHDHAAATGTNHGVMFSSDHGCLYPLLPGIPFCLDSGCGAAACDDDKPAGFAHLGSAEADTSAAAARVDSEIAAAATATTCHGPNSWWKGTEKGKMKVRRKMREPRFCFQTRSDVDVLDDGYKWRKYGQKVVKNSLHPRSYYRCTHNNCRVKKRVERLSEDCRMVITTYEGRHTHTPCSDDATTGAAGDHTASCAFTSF

Some of the results follow.

In the assay the target is OsWRKY34 (Oryza sativa, UniProt Q0JBA9 1-250). Kind of assay: protein-binding microarray (RPBM); PBS, 2% BSA, 51.3 ng/ul salmon testes DNA, 50 uM zinc acetate, 200 nM TF, 25 C, 1 h; high values mean tight binding. To be noted: protein: recombinant; tags: N-terminal polyhistidine and DsRed monomer fusion (pET32a); label: CyDye5-dUTP incorporated in the synthesized complementary strand; 3' TTTTT single-stranded linker to array surface; dsDNA, one strand shown. The method in brief: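 An Axon 4000B scanner gave the binding signal as per-feature fluorescence intensity in arbitrary units. This followed washing of a custom Agilent array that had been incubated for 1 h at 25 °C with 200 nM protein in PBS, 2% BSA, salmon testes DNA and 50 µM zinc acetate. The proteins were transcription factors fused at the N-terminus to polyhistidine and DsRed, expressed in E. coli BL21-CodonPlus and purified on Ni–NTA.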
“TCTGATACTCCTTTTCACCGTGCCTTTTCAACACAACTTCCGGAGTCACCTAGTGCAG”: the binding signal was 11500 fluorescence intensity (a.u.).
For “GGTAGTTCCCTGGCCTTGACGATCAATTGTTCATCACCATCGGAGTCACCTAGTGCAG”, the binding signal is 8440 fluorescence intensity (a.u.).
As for “TCTTATTTATGTGCATCCCTCGCTATGACTAATCTTGTCTCGGAGTCACCTAGTGCAG”, the binding signal is 8500 fluorescence intensity (a.u.).
With “ATTTCTATTTCTACAAATATGACTAGCTAGCGTTTATATACGGAGTCACCTAGTGCAG” the figure was 8300 fluorescence intensity (a.u.); with “CGAGTCTAGTATCAATTGGATATCTGGTATTTTTTTTATTCGGAGTCACCTAGTGCAG”, 8280 fluorescence intensity (a.u.).
For “ACTTTTGGTGGACCTTGGTTGTTTGGTCTGTTTCTCTCAGCGGAGTCACCTAGTGCAG”, the binding signal is 8680 fluorescence intensity (a.u.).
As to “GGAGTCCGTACTATCTGTAGCCCACTGCTCTTCTCTCCCTCGGAGTCACCTAGTGCAG”, the binding signal is 8760 fluorescence intensity (a.u.).
For the sequence “CGATATCTACCCATTCTCTACGCAGAATTTGCGATCCGCCCGGAGTCACCTAGTGCAG”, the binding signal is 8270 fluorescence intensity (a.u.).
For “TTTCTCACATGTTTAACCATTCGTCTTATTCAAAAAATTTCGGAGTCACCTAGTGCAG”, the binding signal is 8100 fluorescence intensity (a.u.).
With “CAATGAGGTGCTTTGAAATCATTTCGCTTTCACTACTTTACGGAGTCACCTAGTGCAG” the figure was 8310 fluorescence intensity (a.u.); with “TGCCCAGTGTCGCCATTGCTATGCCTTGCGAGCATTCCTCCGGAGTCACCTAGTGCAG”, 9270 fluorescence intensity (a.u.); with “AACACCTCGAAATCAATCGGCCGGTCAACCAAACTACCCTCGGAGTCACCTAGTGCAG”, 8210 fluorescence intensity (a.u.).
The figure for “GATTCGTCTCGTAATTTACATGTAAATTGTGTAATGTTTTCGGAGTCACCTAGTGCAG” is 8330 fluorescence intensity (a.u.); for “CCTCACCCTATGCTCCTGTGTTTTGTAGTCTTTCGTAACACGGAGTCACCTAGTGCAG” it is 8220 fluorescence intensity (a.u.); for “AAATCTCTAATTCATCCATGTTGATCCATATATTTTTCTCCGGAGTCACCTAGTGCAG” it is 9770 fluorescence intensity (a.u.).
As for “GGGACGGAGGAGGGGCGATGACACGGTACGGGAGATAGTGCGGAGTCACCTAGTGCAG”, the binding signal is 8960 fluorescence intensity (a.u.).
Turning to “TTAACTGCAACCATAAGTTTCTGCGCCTAACTTTGATCGTCGGAGTCACCTAGTGCAG”, the binding signal is 8850 fluorescence intensity (a.u.).
For “ATCGTAATGCCACTGAATTCCAGCTCTTTGACCGTACGGGCGGAGTCACCTAGTGCAG”, the binding signal is 10100 fluorescence intensity (a.u.).
With “CCAATCCTAGTTTCTGTTCTCTTATTCCCAGTCCCCTGCTCGGAGTCACCTAGTGCAG” the figure was 8090 fluorescence intensity (a.u.).
For the sequence “GTCCTTTAATTTTCTTTTCTTTTTTTTTTCGAACGCGCAACGGAGTCACCTAGTGCAG”, the binding signal was 8220 fluorescence intensity (a.u.).
The figure for “CCAGCCCATACTCACGCTCCCGGCCGGCCCATCCATGGCCCGGAGTCACCTAGTGCAG” is 8340 fluorescence intensity (a.u.); for “AATACTAAATAAGTATTTGTTTGTTTTTTTTAAGGAGGGGCGGAGTCACCTAGTGCAG” it is 9580 fluorescence intensity (a.u.).
The figure for “CGCCTGACATCCCGTTGTATTTCTTTCATATAACCGCTCGCGGAGTCACCTAGTGCAG” is 9400 fluorescence intensity (a.u.); for “TACACACCATCATCTTTTTTTCCCCTTTTGTTTCATCTCCCGGAGTCACCTAGTGCAG” it is 9900 fluorescence intensity (a.u.).
In the case of “GGACTCTTTTCATTCATTCCTTCACTCCATAGGGGTAGGACGGAGTCACCTAGTGCAG”, the binding signal was 12100 fluorescence intensity (a.u.).
On to “GAAATATCAACAACCCTATAAAAAAAGTCAACCCATGTACCGGAGTCACCTAGTGCAG”, for which the binding signal is 9120 fluorescence intensity (a.u.).
The figure for “GTCCAGATTCGTTAAACTATTGTGTCTCATTTTTAACTAGCGGAGTCACCTAGTGCAG” is 8810 fluorescence intensity (a.u.).
Take “AATTTTCGTTACTGTATTCGCACCGGTTCATTTTCGCTCCCGGAGTCACCTAGTGCAG”: the binding signal was 9150 fluorescence intensity (a.u.).
With “CGCCCACCTCCGCTCCGCTGCCACGCTCGCCCTCCGCCACCGGAGTCACCTAGTGCAG” the figure was 11600 fluorescence intensity (a.u.); with “GCCCACGCACGACGCGCCTCCCACGCCCACACTGCACCGCCGGAGTCACCTAGTGCAG”, 8180 fluorescence intensity (a.u.).
With “TCCATCGAAATCCTTCCGCCGCGTTTCAAATTTCTTTCTCCGGAGTCACCTAGTGCAG” the figure was 9350 fluorescence intensity (a.u.); with “GGTTGACCGTAGTCAACTCGCCACGTTGACTAGAACCGAGCGGAGTCACCTAGTGCAG”, 17900 fluorescence intensity (a.u.).
For the sequence “ACATTTCTCTCTTTCTTTTATATTGATTTTCTTGCTCTTTCGGAGTCACCTAGTGCAG”, the binding signal was 8490 fluorescence intensity (a.u.).
On to “GTTTAGAACACGGCCCTAATGTCTTTATTTGATTGATCATCGGAGTCACCTAGTGCAG”, for which the binding signal is 9400 fluorescence intensity (a.u.).
As to “ATCATATTGTTTTCATCATGTAACATGTCCACTTTATTCTCGGAGTCACCTAGTGCAG”, the binding signal is 8550 fluorescence intensity (a.u.).
Regarding “CATGGGTTTTTTCTTCCTTTTCCTTTGAGAGATATGATCACGGAGTCACCTAGTGCAG”, the binding signal was 8440 fluorescence intensity (a.u.).
The figure for “TCCCTGTCATTCCATCGTTTGTTCCATCCCATGGACCGGCCGGAGTCACCTAGTGCAG” is 9740 fluorescence intensity (a.u.); for “TTCGGTTGATGCCATGGTAACTGTCTTGCTATGTATGTGTCGGAGTCACCTAGTGCAG” it is 9870 fluorescence intensity (a.u.).
The figure for “CTTTCCTTTTTCCTTTGTCTCACGTTTTCCCCTCCCAGAACGGAGTCACCTAGTGCAG” is 8060 fluorescence intensity (a.u.); for “TTCTGAATGCCTTTTCGTTTATGTATATACTTATTCGAACCGGAGTCACCTAGTGCAG” it is 9300 fluorescence intensity (a.u.); for “ACTTATGTTTTGCTGCTCTGCGCAGAGAGCTGTCCTTGAACGGAGTCACCTAGTGCAG” it is 8320 fluorescence intensity (a.u.).
With “GTTCGCTGACTGATTGATTTCTTTTCAATCCCCGCGCGCGCGGAGTCACCTAGTGCAG” the figure was 11700 fluorescence intensity (a.u.).
